Source: patent US20200165257A1, “INHIBITORS OF PHOSPHOINOSITIDE 3-KINASE AND HISTONE DEACETYLASE FOR TREATMENT OF CANCER” (THE UNITED STATES OF AMERICA, AS REPRESENTED BY THE …, priority 2017, published 2020)
Some of these results come from one statement about several compounds together.

Assays:
Conditions in all cases: single dose, 10 uM compound concentration
[1] = test system: Renal Cancer Cell Line UO-31
[2] = test system: Melanoma Cell Line M14
[3] = test system: Melanoma Cell Line UACC-257
[4] = test system: Colon Cancer Cell Line HCT-15
[5] = test system: CNS Cancer Cell Line SNB-75
[6] = test system: Renal Cancer Cell Line RXF 393
[7] = test system: Melanoma Cell Line LOX IMVI

Which results are given for `Cc1nc2cccc(NCc3ccc(C(=O)NO)cc3)c2c(=O)n1-c1ccccc1` [Compound LX, N-hydroxy-4-(((2-methyl-4-oxo-3-phenyl-3,4-dihydroquinazolin-5-yl)amino)methyl)benzamide]?
inhibition of proliferation [1]: > 50%; inhibition of proliferation [2]: > 50%; inhibition of proliferation [3]: 25%-50%; inhibition of proliferation [4]: > 50%; inhibition of proliferation [5]: > 50%; inhibition of proliferation [6]: > 50%; inhibition of proliferation [7]: > 50%
